The supplement of paper PMC6411743
± gives the standard deviation of the averaged measurements. Some of the results follow.

The chains behind the UniProt entries cited, without tags or fusion partners. Where a name states a change or a piece, a line headed by the entry shows the natural chain unless it says otherwise.
UniProt Q8N4V1: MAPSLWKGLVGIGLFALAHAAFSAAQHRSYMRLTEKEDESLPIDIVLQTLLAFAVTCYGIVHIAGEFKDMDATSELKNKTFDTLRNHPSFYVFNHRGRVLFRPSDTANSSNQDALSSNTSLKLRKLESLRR
UniProt Q8IZ81: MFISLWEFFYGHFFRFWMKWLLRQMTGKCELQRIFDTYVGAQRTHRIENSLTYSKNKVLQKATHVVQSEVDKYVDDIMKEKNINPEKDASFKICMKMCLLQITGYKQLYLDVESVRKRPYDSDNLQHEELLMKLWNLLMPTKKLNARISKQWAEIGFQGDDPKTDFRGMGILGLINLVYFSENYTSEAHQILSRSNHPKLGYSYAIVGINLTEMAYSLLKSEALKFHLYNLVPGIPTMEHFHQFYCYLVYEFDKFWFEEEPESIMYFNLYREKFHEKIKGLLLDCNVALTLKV
UniProt Q8IXW5, whole entry: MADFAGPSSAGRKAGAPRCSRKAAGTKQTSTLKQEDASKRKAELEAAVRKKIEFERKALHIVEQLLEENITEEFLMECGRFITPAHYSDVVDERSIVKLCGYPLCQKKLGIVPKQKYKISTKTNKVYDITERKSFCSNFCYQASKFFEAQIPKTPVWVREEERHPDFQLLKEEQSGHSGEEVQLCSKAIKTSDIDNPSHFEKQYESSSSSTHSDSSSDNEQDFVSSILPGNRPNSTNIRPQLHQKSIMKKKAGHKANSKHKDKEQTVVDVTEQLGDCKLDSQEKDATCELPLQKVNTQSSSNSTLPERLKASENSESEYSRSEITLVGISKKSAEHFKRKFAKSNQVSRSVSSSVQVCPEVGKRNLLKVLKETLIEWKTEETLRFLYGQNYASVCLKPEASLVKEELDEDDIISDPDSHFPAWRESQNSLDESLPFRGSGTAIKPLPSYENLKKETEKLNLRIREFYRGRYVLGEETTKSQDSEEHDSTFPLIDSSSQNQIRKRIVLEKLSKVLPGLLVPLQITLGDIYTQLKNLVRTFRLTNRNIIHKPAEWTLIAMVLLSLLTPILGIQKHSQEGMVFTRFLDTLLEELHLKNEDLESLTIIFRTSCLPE
UniProt Q8IXK2: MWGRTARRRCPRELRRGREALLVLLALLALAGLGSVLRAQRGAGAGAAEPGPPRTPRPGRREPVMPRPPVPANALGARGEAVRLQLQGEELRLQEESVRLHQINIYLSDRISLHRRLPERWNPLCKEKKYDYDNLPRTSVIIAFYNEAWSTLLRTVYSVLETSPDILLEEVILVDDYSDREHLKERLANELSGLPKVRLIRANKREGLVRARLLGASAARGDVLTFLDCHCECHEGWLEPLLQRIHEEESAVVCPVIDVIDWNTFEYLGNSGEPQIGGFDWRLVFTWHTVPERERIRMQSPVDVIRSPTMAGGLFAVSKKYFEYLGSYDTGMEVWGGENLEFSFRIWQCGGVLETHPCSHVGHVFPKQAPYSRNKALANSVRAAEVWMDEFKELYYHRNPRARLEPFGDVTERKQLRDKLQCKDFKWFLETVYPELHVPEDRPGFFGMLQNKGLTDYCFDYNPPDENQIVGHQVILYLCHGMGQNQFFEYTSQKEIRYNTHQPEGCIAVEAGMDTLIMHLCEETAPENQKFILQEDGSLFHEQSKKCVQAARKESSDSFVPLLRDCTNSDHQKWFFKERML
UniProt Q8N8A6: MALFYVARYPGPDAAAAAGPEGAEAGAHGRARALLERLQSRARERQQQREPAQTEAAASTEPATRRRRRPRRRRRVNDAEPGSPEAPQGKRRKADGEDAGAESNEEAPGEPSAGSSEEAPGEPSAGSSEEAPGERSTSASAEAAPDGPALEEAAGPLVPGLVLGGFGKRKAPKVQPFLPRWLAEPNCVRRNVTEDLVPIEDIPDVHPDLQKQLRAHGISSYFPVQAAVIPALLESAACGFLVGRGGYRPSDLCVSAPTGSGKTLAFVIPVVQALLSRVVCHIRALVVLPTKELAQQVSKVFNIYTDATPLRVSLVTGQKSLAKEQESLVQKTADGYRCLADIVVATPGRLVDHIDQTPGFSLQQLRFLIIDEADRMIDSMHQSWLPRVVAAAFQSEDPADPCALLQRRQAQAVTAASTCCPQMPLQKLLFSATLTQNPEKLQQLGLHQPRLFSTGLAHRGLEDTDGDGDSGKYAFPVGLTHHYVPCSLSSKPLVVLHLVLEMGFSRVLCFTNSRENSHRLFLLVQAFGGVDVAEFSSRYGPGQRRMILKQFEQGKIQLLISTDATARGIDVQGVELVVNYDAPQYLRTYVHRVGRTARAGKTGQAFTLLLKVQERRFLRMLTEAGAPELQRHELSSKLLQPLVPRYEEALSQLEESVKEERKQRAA
UniProt Q8NHU6: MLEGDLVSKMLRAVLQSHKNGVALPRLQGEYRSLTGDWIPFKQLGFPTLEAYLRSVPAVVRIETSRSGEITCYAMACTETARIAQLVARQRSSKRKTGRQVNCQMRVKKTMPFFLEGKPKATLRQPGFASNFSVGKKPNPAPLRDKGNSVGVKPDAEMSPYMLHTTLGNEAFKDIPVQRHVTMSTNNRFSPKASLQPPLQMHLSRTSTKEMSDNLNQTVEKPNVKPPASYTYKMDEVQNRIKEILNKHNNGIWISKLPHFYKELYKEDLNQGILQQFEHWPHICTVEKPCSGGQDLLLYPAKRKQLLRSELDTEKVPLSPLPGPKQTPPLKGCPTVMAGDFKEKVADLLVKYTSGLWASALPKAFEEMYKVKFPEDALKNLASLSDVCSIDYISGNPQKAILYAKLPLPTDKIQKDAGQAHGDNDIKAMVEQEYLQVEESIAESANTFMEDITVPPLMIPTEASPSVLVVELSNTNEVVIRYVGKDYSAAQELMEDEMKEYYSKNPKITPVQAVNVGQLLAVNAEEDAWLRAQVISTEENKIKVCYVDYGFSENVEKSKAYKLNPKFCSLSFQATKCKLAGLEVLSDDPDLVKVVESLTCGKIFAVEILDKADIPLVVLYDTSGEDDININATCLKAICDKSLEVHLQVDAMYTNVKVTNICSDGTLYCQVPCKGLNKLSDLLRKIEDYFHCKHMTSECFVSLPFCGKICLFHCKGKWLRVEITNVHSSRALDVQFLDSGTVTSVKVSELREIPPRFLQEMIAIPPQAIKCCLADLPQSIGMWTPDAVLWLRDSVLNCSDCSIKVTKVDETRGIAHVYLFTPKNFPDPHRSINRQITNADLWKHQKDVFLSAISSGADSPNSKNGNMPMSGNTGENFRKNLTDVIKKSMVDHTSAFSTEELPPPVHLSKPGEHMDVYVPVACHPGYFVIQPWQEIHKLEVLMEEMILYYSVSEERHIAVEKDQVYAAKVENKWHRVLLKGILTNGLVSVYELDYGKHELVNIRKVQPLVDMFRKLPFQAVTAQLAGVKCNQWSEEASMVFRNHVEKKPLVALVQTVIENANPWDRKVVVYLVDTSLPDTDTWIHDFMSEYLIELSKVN
UniProt Q8IX12: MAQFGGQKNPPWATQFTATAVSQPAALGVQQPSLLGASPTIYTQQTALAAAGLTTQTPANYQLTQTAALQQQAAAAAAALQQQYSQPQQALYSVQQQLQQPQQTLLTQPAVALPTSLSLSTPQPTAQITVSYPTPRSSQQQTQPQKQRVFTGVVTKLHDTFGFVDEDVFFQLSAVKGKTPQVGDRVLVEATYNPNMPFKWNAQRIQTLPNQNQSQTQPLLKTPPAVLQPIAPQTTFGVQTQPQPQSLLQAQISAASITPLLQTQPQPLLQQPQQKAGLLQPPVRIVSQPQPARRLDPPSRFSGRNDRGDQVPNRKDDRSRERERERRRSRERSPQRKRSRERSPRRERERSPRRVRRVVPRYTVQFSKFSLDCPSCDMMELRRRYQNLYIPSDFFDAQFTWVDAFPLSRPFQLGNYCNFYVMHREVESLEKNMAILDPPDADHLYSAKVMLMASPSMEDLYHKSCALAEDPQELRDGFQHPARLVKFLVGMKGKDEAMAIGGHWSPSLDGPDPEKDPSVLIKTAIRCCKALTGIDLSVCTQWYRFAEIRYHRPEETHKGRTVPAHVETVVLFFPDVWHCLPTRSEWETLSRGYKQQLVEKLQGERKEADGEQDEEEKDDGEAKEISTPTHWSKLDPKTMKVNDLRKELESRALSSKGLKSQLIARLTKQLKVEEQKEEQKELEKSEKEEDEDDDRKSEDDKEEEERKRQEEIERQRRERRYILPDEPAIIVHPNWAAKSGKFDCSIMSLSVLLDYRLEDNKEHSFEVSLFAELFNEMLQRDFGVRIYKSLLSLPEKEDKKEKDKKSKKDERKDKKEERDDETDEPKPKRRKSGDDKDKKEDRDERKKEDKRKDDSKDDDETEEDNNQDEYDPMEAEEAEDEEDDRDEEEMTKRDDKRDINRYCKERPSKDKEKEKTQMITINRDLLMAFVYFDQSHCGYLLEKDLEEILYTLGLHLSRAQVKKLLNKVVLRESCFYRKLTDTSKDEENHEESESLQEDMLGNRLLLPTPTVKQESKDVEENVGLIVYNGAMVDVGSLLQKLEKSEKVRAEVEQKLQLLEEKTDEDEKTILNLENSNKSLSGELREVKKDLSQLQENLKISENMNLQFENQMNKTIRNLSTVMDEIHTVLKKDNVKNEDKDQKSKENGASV
UniProt Q8NCF5: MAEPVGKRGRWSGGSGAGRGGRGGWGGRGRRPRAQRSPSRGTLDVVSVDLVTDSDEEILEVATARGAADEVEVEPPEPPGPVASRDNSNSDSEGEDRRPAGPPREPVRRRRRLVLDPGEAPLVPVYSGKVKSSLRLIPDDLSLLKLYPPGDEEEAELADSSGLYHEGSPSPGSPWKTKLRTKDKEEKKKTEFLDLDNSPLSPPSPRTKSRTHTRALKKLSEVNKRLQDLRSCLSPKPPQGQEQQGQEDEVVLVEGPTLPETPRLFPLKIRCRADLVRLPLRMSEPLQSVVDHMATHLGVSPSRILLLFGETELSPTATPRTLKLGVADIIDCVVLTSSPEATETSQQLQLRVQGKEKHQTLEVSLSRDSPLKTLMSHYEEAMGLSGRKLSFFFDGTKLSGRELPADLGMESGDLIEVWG
UniProt Q8NCN4: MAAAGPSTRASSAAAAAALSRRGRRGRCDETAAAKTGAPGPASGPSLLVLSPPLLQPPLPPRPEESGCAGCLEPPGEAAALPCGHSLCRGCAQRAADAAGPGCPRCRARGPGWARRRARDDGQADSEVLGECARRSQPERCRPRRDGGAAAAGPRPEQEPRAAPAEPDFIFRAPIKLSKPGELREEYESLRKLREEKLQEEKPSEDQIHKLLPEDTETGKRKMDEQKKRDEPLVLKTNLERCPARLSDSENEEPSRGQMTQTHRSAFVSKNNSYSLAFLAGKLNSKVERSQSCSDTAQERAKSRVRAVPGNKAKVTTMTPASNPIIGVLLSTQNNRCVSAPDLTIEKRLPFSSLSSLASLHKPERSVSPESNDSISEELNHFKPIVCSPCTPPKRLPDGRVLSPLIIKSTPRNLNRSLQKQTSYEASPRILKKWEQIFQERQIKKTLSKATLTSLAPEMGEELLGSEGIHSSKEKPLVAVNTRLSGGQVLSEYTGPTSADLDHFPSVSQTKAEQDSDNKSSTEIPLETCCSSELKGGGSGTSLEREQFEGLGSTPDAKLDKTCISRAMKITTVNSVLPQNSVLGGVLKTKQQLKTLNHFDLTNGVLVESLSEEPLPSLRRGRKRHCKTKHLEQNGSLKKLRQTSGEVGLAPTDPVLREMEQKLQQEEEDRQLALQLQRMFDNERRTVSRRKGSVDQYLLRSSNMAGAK
UniProt Q8IXQ5, whole entry: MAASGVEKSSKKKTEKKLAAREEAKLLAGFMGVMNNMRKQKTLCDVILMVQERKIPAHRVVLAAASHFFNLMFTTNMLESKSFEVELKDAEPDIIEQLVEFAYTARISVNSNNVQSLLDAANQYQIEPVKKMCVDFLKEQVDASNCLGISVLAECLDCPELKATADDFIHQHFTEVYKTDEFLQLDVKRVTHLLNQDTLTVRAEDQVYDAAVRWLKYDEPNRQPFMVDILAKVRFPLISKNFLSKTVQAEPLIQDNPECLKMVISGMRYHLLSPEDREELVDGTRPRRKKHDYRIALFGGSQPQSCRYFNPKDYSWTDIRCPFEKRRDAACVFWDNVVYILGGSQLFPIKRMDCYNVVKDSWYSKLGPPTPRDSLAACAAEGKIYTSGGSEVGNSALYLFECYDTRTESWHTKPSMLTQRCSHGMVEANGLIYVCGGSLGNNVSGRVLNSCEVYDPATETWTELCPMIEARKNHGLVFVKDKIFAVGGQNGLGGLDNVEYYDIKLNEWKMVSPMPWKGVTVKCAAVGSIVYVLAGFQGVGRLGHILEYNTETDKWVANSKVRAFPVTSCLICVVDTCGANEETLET
UniProt Q8NCW5: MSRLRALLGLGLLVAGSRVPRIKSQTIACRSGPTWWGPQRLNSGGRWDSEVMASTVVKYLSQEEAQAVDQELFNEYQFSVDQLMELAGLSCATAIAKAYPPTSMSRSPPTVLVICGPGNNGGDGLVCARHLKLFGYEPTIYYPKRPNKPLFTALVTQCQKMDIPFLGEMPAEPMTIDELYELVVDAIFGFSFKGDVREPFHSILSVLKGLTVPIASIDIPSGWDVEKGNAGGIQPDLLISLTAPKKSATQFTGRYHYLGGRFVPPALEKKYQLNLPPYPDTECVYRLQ

Compound: Nc1nc2c(ncn2[C@@H]2O[C@H](COP(=O)(O)OP(=O)(O)OP(=O)(O)O)[C@@H](O)[C@H]2O)c(=O)[nH]1 [guanosine triphosphate]
Assay: NP40-soluble protein abundance relative to vehicle (solubility fold change) (ratio); higher = more soluble protein in presence of GTP
Conditions: concentration: 4mM
Outline: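 Crude Jurkat lysate, prepared by Dounce homogenisation, was exposed to eight concentrations from 0.1 to 10 mM for 10 min at room temperature and then 3 min at 37 °C. Solubilisation used 0.8% NP40 with benzonase for 60 min at 4 °C, followed by ultracentrifugation and TMT labelling of the supernatant for LC-MS/MS. After vsn normalisation of intensities, each value is the fold change against the detergent-processed vehicle within each replicate, across three independent experiments.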

Target	NP40-soluble protein abundance
UniProt Q8NHM5 and related entries	1 ± 0.045
ZNF579 (UniProt Q8NAF0)	0.99 ± 0.059
UniProt Q8N4V1 and related entries	0.907 ± 0.038
UniProt Q8IZ81 and related entries	0.944 ± 0.063
UniProt Q8IXW5 and related entries	1.02 ± 0.039
MLKL (UniProt Q8NB16)	0.873 ± 0.047
UniProt Q8NDV3 and related entries	0.989 ± 0.14
LIX1L (UniProt Q8IVB5)	0.938 ± 0.083
GALNT12 (UniProt Q8IXK2)	0.976 ± 0.06
UniProt Q8N0Y2 and related entries	0.995 ± 0.046
PPIL4 (UniProt Q8WUA2)	0.971 ± 0.062
DDX51 (UniProt Q8N8A6)	1.64 ± 0.085

Same assay, conditions: concentration: 6mM

Target	NP40-soluble protein abundance
UniProt Q8N2K0 and related entries	1.01 ± 0.023
UniProt Q8NI08 and related entries	0.936 ± 0.11
UniProt Q8N6G5 and related entries	1.01 ± 0.086
UniProt Q8IVS2	1.03 ± 0.067
UniProt Q8IWY9 and related entries	0.993 ± 0.049
UniProt Q8NEC7 and related entries	0.937 ± 0.2
UniProt Q8NHU6 and related entries	1.09 ± 0.094
UniProt Q8TEH3 and related entries	0.981 ± 0.17
DCP2 (UniProt Q8IU60)	0.952 ± 0.05
LRRC8A (UniProt Q8IWT6)	1.15 ± 0.068
UniProt Q8IX12 and related entries	1.12 ± 0.06
UniProt Q8ND76 and related entries	1.06 ± 0.014
UniProt Q8N4C8 and related entries	0.989 ± 0.027
NFATC2IP (UniProt Q8NCF5)	0.917 ± 0.11
UniProt Q8NDI1-2|Q8NDI1-3|Q8NDI1	0.9 ± 0.061
NUP43 (UniProt Q8NFH3)	1.11 ± 0.027
PLBD2 (UniProt Q8NHP8)	0.921 ± 0.026
UniProt Q8IYB5-2|Q8IYB5-3	0.898 ± 0.1
RNF169 (UniProt Q8NCN4)	1.36 ± 0.083

Target	NP40-soluble protein abundance
ZC3H15 (UniProt Q8WU90)	0.953 ± 0.076
UniProt Q8IXQ5 and related entries	1.11 ± 0.24
UniProt Q8NFV4 and related entries	0.965 ± 0.02
UniProt Q8TDY2 and related entries	1.05 ± 0.037
UniProt Q8NBJ5	0.908 ± 0.015
UniProt Q8NCW5	0.932 ± 0.08
UniProt Q8NHM5 and related entries	1.09 ± 0.059
ZNF579 (UniProt Q8NAF0)	0.938 ± 0.064
UniProt Q8N4V1 and related entries	0.995 ± 0.053
UniProt Q8IZ81 and related entries	0.877 ± 0.048
UniProt Q8IXW5 and related entries	1.08 ± 0.089
MLKL (UniProt Q8NB16)	0.874 ± 0.032
UniProt Q8NDV3 and related entries	1.02 ± 0.1
LIX1L (UniProt Q8IVB5)	0.926 ± 0.1
GALNT12 (UniProt Q8IXK2)	0.938 ± 0.063
UniProt Q8N0Y2 and related entries	0.953 ± 0.065
PPIL4 (UniProt Q8WUA2)	0.982 ± 0.059
DDX51 (UniProt Q8N8A6)	1.86 ± 0.21
